Data source: PubChem BioAssay AID743454 (Peter MacCallum Cancer Centre, 2014)
The deposit covers about 18,000 reagents; shown is a random part of them. 450 of all reagents (2.5%) count as active. 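Single biological run; no consistent viability z cut-off exists, so the class columns, not z-scores, define the calls.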 Entries without a mark were called inactive.

Assay: 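Search for knock-downs that restore vorinostat killing in resistant colon cancer cells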 (primary screen)
Cell system: human HCT116-VR colon cancer cells, selected for vorinostat resistance
Knock-down reagent: siRNA pool against human genes, 40 nM siRNA pool
Duration: vorinostat for 24 h, read-out about 72 h after transfection
Conditions: vorinostat at 2.5 µM final
Measurement: 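Two measures, CellTiter-Fluor viability and luminescent caspase 3/7 activity, each as fold change against same-plate mock wells, mean of duplicates, then screen-wide robust z-score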
Direction: viability robust z-score: higher = more viable cells than screen typical; caspase robust z-score: higher = more caspase 3/7 activity than screen typical
Rule for the call: 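a knock-down is a hit when classed RV1 or RV2 for lowered viability, or CA1 or CA2 for caspase activation; those lethal without drug were dropped; hits were retested singly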

With knock-down of PSMD11 the results were viability hit class no change; caspase hit class no change; viability robust z-score -3.92; caspase robust z-score 1.55.
With knock-down of LDOC1, the screen gave viability hit class no change; caspase hit class no change; viability robust z-score 0.04; caspase robust z-score 1.68.
Depletion of GATAD2B came out at: viability hit class no change; caspase hit class no change; viability robust z-score -1.37; caspase robust z-score -0.79.
Against WIPF2, the values are viability hit class no change; caspase hit class no change; viability robust z-score -2.71; caspase robust z-score 2.54.
MCTS1 scored viability hit class no change; caspase hit class no change; viability robust z-score 0.84; caspase robust z-score -0.04.
Against ZC3H13 the deposit lists viability hit class no change; caspase hit class no change; viability robust z-score 1.4; caspase robust z-score -0.61.
For C3orf38, the entry reads viability hit class no change; caspase hit class no change; viability robust z-score 0.24; caspase robust z-score 0.56.

No new results follow: 2 of the entries above.
ZC3H13 — viability hit class = no change; caspase hit class = no change; viability robust z-score = 1.4; caspase robust z-score = -0.61
C3orf38 — viability hit class = no change; caspase hit class = no change; viability robust z-score = 0.24; caspase robust z-score = 0.56

Additional reagents follow.
With knock-down of ACR, the screen gave viability hit class no change; caspase hit class no change; viability robust z-score -0.94; caspase robust z-score -0.64.
Knock-down of PABPC1L2B gave: viability hit class no change; caspase hit class no change; viability robust z-score 0.87; caspase robust z-score -0.18.
HOXB2 scored viability hit class no change; caspase hit class no change; viability robust z-score 0.36; caspase robust z-score -0.87.
Depletion of CPLX2 resulted in: viability hit class no change; caspase hit class no change; viability robust z-score 0.52; caspase robust z-score -1.08.
Silencing of IFNL1 gave: viability hit class no change; caspase hit class no change; viability robust z-score -0.79; caspase robust z-score 1.41.
Knock-down of SLC22A13 gave: viability hit class no change; caspase hit class no change; viability robust z-score -0.2; caspase robust z-score 0.22.
After knock-down of CDK4, the record shows viability hit class no change; caspase hit class no change; viability robust z-score -0.11; caspase robust z-score -0.08.
Depletion of SOX5 came out at: viability hit class no change; caspase hit class no change; viability robust z-score -0.76; caspase robust z-score 0.44.
Against SHMT2, the values are viability hit class no change; caspase hit class no change; viability robust z-score -0.3; caspase robust z-score 2.12.
PPDPF gave viability hit class no change; caspase hit class no change; viability robust z-score 1.05; caspase robust z-score 0.32.
With knock-down of GLI3 the results were viability hit class no change; caspase hit class no change; viability robust z-score -0.54; caspase robust z-score 0.5.
For DEFB103B the deposit lists viability hit class no change; caspase hit class no change; viability robust z-score -1.03; caspase robust z-score 0.02.
Silencing of CDH19 gave: viability hit class no change; caspase hit class no change; viability robust z-score -1.18; caspase robust z-score 0.74.
With knock-down of MAGOHB, the record shows viability hit class no change; caspase hit class no change; viability robust z-score 1.28; caspase robust z-score -0.74.
